From patent US10849990B2 (priority 2018, dated 2020)
At least one structure is not confirmed: it was looked up by name or label, or the drawing left a doubt.

Test system: SPR-KO mice
Conditions: mouse, in vivo

With `C[C@H](O)[C@H](O)[C@H]1CNc2nc(N)[nH]c(=O)c2N1` [BH4, tetrahydrobiopterin] the life-span was “extended their life-span to old age”.
